This is an account of results in the supplement of paper PMC8256030.

Values joined by “and” are separate entries in the source; they are usually repeats but may differ in a detail not shown here. Equal values may be shown once. This is one part of the list. Repeats in this data set agree poorly, so a single value says little.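 HEK293T cells were given each compound shortly before transfection with a reporter in which red mCherry is followed by the SARS-CoV-2 frameshift element and then GFP in the −1 frame, so GFP appears only after frameshifting.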

For experiment [1], the system named is SARS-CoV-2 -1 PRF reporter mCherry-FSE-GFP(-1). Put plainly: mCherry (red) intensity as percent of control; higher = higher upstream reporter expression. The conditions noted are these: 10 µM; 24 h; HEK293T.
The test system is the same in experiment [2]. Nature of the experiment: percent effect, decrease of GFP/mCherry ratio (-1 PRF reporter) relative to controls; higher = stronger frameshift inhibition. The following applies: 10 µM; 24 h; HEK293T.

`Oc1c(I)cc(Cl)c2cccnc12` [clioquinol] showed a mCherry in experiment [1] of 101%. The percent effect in experiment [2] was -5.7%.
With `CCN(CC)CCOC(=O)c1ccc(N)cc1` [procaine], the mCherry in experiment [1] was 105%. Further, in experiment [2], the percent effect was -0.458%.
In the case of `COc1ccc2c3c1O[C@H]1C[C@@H](O)C=C[C@@]31CCN(C)C2` [galantamine], the mCherry in experiment [1] was 91.7% and 78.1%. Moreover, in experiment [2], the percent effect was 2.56% and -4.99%.
In experiment [1], `CC(=O)N[C@@H](C=O)[C@@H](O)[C@H](O)[C@H](O)CO` registered a mCherry of 105%. Further, the percent effect in experiment [2] was -2.81%.
Consider `CC(C)c1cc(C(C)C)c(-c2csc(N(CCN(C)C)Cc3cccnc3)n2)c(C(C)C)c1` [foropafant], for which, in experiment [1], the mCherry amounted to 40.2%. For the same molecule, the percent effect in experiment [2] is -8.85%.
Taken in the same sequence, the figures for `CCN(CC)CCOc1cc2oc(=O)cc(C)c2cc1OCCN(CC)CC` [oxamarin] were 59.9% and 2.71%.
On the same counts, the results for `COc1cc(C(=S)N2CCOCC2)ccc1O` [vanitiolide] are 95.9% and -10.3%.
For the molecule `CCCc1c2c(c(O)c3c(=O)cc(C(=O)O)oc13)CCCC2` [proxicromil], the mCherry in experiment [1] was 98.8%. For the same molecule, the percent effect in experiment [2] is -1.29%.
For `CC/C(=C(\c1ccc(O)cc1)c1ccc(OCCN(C)C)cc1)c1ccccc1` [afimoxifene], the mCherry in experiment [1] came to 48%. The percent effect in experiment [2] was -7.44%.
Regarding `CC(=O)O[C@]1(C(C)=O)CC[C@H]2[C@@H]3C=C(Cl)C4=CC(=O)CC[C@]4(C)[C@H]3CC[C@@]21C`, in experiment [1], the mCherry turned out to be 141%. Besides, in experiment [2], the percent effect turned out to be 1.14%.
On the same counts, the results for `CCC(=O)O[C@@H](O[P@](=O)(CCCCc1ccccc1)CC(=O)N1C[C@H](C2CCCCC2)C[C@H]1C(=O)O)C(C)C` [Fosinopril] are 84.3% and 10.6%.
`C[C@H](C#Cc1ccc(Cc2ccc(F)cc2)s1)N(O)C(N)=O` [atreleuton]: in experiment [1], the mCherry came to 55.8%. Further, in experiment [2], the percent effect was -4.18%.
Taken in the same sequence, the figures for `CC(NCCC(c1ccccc1)c1ccccc1)c1ccccc1` (stereo unspecified) [fendiline] were 120% and -0.837%.
As for `CNC(=O)c1ccc(Cl)c(S(=O)(=O)NC)c1` [tiamizide], the mCherry in experiment [1] came out at 111%. Moreover, the percent effect in experiment [2] was -0.327%.
`CC(=O)Oc1cccc(C(=O)O)c1OC(C)=O` [dipyrocetyl] registered a mCherry in experiment [1] of 121%. Further, the percent effect in experiment [2] amounted to 4.25%.
On the same counts, the results for `Cc1ccc(O)c([C@H](CCN(C(C)C)C(C)C)c2ccccc2)c1` [tolterodine] are 102% and -2.31%.
On the same counts, the results for `CN1CC(=O)N=C1N` are 89.7% and 1.72%.
On the same counts, the results for `O=S(=O)(O)CCS` [mesna] are 91.8% and -0.844%.
On to `CCOC(=O)C1=C(C)NC(C)=C(C(=O)OC)C1c1cccc([N+](=O)[O-])c1` (stereo unspecified) [nitrendipine], for which, in experiment [1], the mCherry worked out at 81.4%. Besides, the percent effect in experiment [2] is -2.53%.
Taken in the same sequence, the figures for `CC(=O)/N=c1/sc(S(N)(=O)=O)nn1C` [methazolamide] were 94.1% and 2.11%.
With `Cc1c(CC(=O)O)sc2ccc(Cl)cc12` [tianafac], the mCherry in experiment [1] turned out to be 84.3%. Besides, the percent effect in experiment [2] was -7%.
The molecule `[O-][S+](c1cc(Cl)cc(Cl)c1O)c1cc(Cl)cc(Cl)c1O` [bithionoloxide] gave a mCherry in experiment [1] of 84.9%. Also, the percent effect in experiment [2] is -2.91%.
As for `CCN(CC)CC#CCOC(=O)C(O)(c1ccccc1)C1CCCCC1` (stereo unspecified) [oxybutynin], the mCherry in experiment [1] came out at 114%. Moreover, in experiment [2], the percent effect is -6.74%.
As for `COc1ccc(C(=O)Nc2ccccc2CCC2CCCCN2C)cc1` (stereo unspecified) [encainide], the mCherry in experiment [1] was determined as 96.7%. Moreover, the percent effect in experiment [2] is -2.12%.
In experiment [1], `Cc1c(C)c2c(c(C)c1O)CCC(C)(COc1ccc(CC3SC(=O)NC3=O)cc1)O2` (stereo unspecified) [troglitazone] had a mCherry of 92.4%. Besides, in experiment [2], the percent effect is -4.25%.
Taken in the same sequence, the figures for `CNC[C@H](O)[C@@H](O)[C@H](O)[C@H](O)CO` were 79.9% and -3.22%.
The molecule `CC(C)C(N)C(=O)O` (stereo unspecified) returned a mCherry in experiment [1] of 111%. Besides, in experiment [2], the percent effect was -2.35%.
`CCCCc1ccc(C(N)=O)nc1` [bupicomide] gave a mCherry in experiment [1] of 117%. Besides, the percent effect in experiment [2] was determined as 3.19%.
With `CNC(=C[N+](=O)[O-])NCCSCc1ccc(CN(C)C)o1`, in experiment [1], the mCherry is 95.2%. The percent effect in experiment [2] was -6.81%.
For the molecule `CN(C)C/C=C(/c1ccc(Br)cc1)c1cccnc1` [zimeldine], the mCherry in experiment [1] was 72%. Further, in experiment [2], the percent effect was -3.12%.
In turn, `CO[C@@]1(NC(=O)C2SC(=C(C(N)=O)C(=O)O)S2)C(=O)N2C(C(=O)O)=C(CSc3nnnn3C)CS[C@@H]21` (stereo partly specified) [Cefotan] came in with a mCherry in experiment [1] of 81.9%. In experiment [2], the percent effect was -5.16%.
With `CCCC(=O)c1ccc2c(c1)N(CCCN1CCN(C)CC1)c1ccccc1S2` [butaperazine], the mCherry in experiment [1] was found to be 62.4%. In addition, in experiment [2], the percent effect was 0.499%.
In turn, `CCCCC(C)(O)C/C=C/[C@H]1[C@H](O)CC(=O)[C@@H]1CCCCCCC(=O)OC` (stereo partly specified) [Cytotec] had a mCherry in experiment [1] of 116%. For the same molecule, the percent effect in experiment [2] is -3.7%.
For `CC1COc2c(N3CCN(C)CC3)c(F)cc3c(=O)c(C(=O)O)cn1c23` (stereo unspecified) [ofloxacin], the mCherry in experiment [1] was 90.8% and 86.2%. Besides, the percent effect in experiment [2] was -3.16% and 1.8%.
`CC1=Nc2ccc(Cl)cc2S(=O)(=O)N1` [Diazoxide] had a mCherry in experiment [1] of 106%. In addition, in experiment [2], the percent effect amounted to 1.25%.
As to `CN[C@H]1C(=O)N[C@@H]2Cc3ccc(cc3)Oc3cc4cc(c3O[C@@H]3O[C@H](C(=O)O)[C@@H](O)[C@H](O)[C@H]3NC(=O)CCCCCCCCC(C)C)Oc3ccc(cc3Cl)[C@@H](O)[C@@H]3NC(=O)[C@H](NC(=O)[C@@H]4NC(=O)[C@@H](NC2=O)c2cc(cc(O)c2Cl)Oc2cc1ccc2O)c1ccc(O)c(c1)-c1c(O[C@H]2O[C@H](CO)[C@@H](O)[C@H](O)[C@@H]2O)cc(O)cc1[C@@H](C(=O)NCCCN(C)C)NC3=O` [dalbavancin], the mCherry in experiment [1] was found to be 103%. Further, the percent effect in experiment [2] was 0.755%.
Turning to `CC(=O)[C@H]1CC[C@H]2[C@@H]3CC=C4C[C@@H](OC(=O)CCC(=O)O)CC[C@]4(C)[C@H]3CC[C@]12C`, the mCherry in experiment [1] turned out to be 129%. Besides, the percent effect in experiment [2] was 1.03%.
For the molecule `CO[C@@H]1[C@H](OC(=O)/C=C/C=C/C=C/C=C/C(=O)O)CC[C@]2(CO2)[C@H]1[C@@]1(C)O[C@@H]1CC=C(C)C` [Fumagillin], the mCherry in experiment [1] was determined as 67.9%. Besides, the percent effect in experiment [2] is -2.68%.
